# Data reported in patent US10986839B2, “Substituted oxadiazoles for combating phytopathogenic fungi” (BASF SE, priority 2016, dated 2021).
# Some results were stated once for a whole list of compounds, not compound by compound.
# Key:
# Format in all cases: in vivo
# Phakopsora pachyrhizi [1] = assay: Protective control of soy bean rust on soy beans (glass house trial); conditions: sprayed 2 days before inoculation (protective), soy bean seedlings, untreated plants 90%
# Puccinia recondita [2] = assay: Curative control of brown rust on wheat (glass house trial); conditions: 63 ppm active compound, sprayed after inoculation (curative), wheat seedlings; untreated plants 90%
# Puccinia recondita [3] = assay: Preventative control of brown rust on wheat (glass house trial); conditions: 63 ppm active compound, sprayed seven days before inoculation (preventative), wheat seedlings; untreated plants 90%
# Phakopsora pachyrhizi [4] = assay: Curative control of soy bean rust on soy beans (glass house trial); conditions: sprayed after inoculation (curative), soy bean seedlings, untreated plants 90%
SMILES,diseased leaf area (Phakopsora pachyrhizi [1]; 63 ppm active compound),diseased leaf area (Puccinia recondita [2]),diseased leaf area (Puccinia recondita [3]),diseased leaf area (Phakopsora pachyrhizi [1]; 16 ppm active compound),diseased leaf area (Phakopsora pachyrhizi [4]; 16 ppm active compound),diseased leaf area (Phakopsora pachyrhizi [4]; 63 ppm active compound)
CC(c1ccc(-c2noc(C(F)(F)F)n2)cc1)N(C)C(=O)c1ccc(F)cc1F (racemic) [Ex-16],at most 6%,,,,,
CN(Cc1ccc(-c2noc(C(F)(F)F)n2)cc1)C(=O)C1(C)CC1 [Ex-12],,at most 4%,at most 12%,at most 1%,at most 13%,
CN(Cc1ccc(-c2noc(C(F)(F)F)n2)cc1)C(=O)C1CCCCC1 [Ex-2],,at most 4%,,at most 1%,at most 13%,
C=CCN(Cc1ccc(-c2noc(C(F)(F)F)n2)cc1)C(=O)C1CCC1 [Ex-6],,at most 4%,at most 12%,at most 1%,,
CC(C)N(Cc1ccc(-c2noc(C(F)(F)F)n2)cc1)C(=S)C1CC1 [Ex-32],,at most 4%,,at most 1%,,
CC(c1ccc(-c2noc(C(F)(F)F)n2)cc1)N(C)C(=O)c1c(F)cccc1F (racemic) [Ex-24],at most 6%,,,,,
CN(Cc1ccc(-c2noc(C(F)(F)F)n2)cc1)C(=O)C1CC1 [Ex-3],,at most 4%,,at most 1%,at most 13%,
C=CCN(Cc1ccc(-c2noc(C(F)(F)F)n2)cc1)C(=O)C1CC1 [Ex-5],,at most 4%,at most 12%,at most 1%,at most 13%,
CC(c1ccc(-c2noc(C(F)(F)F)n2)cc1)N(C)C(=O)C1CC1 (racemic) [Ex-13],,at most 4%,,at most 1%,,
CN(Cc1ccc(-c2noc(C(F)(F)F)n2)cc1)C(=O)C1CCC1 [Ex-1],,at most 4%,at most 12%,at most 1%,at most 13%,
CN(Cc1ccc(-c2noc(C(F)(F)F)n2)cc1)C(=S)C1CCC1 [Ex-29],,at most 4%,at most 12%,at most 1%,at most 13%,
O=C(NCc1ccc(-c2noc(C(F)(F)F)n2)cc1)C1CC1 [Ex-19],,at most 4%,at most 12%,at most 1%,at most 13%,
CC(c1ccc(-c2noc(C(F)(F)F)n2)cc1)N(C)C(=S)C1CC1 (racemic) [Ex-25],,at most 4%,,at most 1%,,
CC(c1ccc(-c2noc(C(F)(F)F)n2)cc1)N(C)C(=O)c1ccccc1F (racemic) [Ex-22],at most 6%,,,,,
CN(Cc1ccc(-c2noc(C(F)(F)F)n2)cc1)C(=S)C1CCCCC1 [Ex-30],,,,at most 1%,at most 13%,
C=CCN(Cc1ccc(-c2noc(C(F)(F)F)n2)cc1)C(=O)c1ccccc1 [Ex-8],at most 6%,,,,,at most 15%
CC(C)N(Cc1ccc(-c2noc(C(F)(F)F)n2)cc1)C(=O)C1CC1 [Ex-9],,at most 4%,at most 12%,at most 1%,at most 13%,
C=CCN(Cc1ccc(-c2noc(C(F)(F)F)n2)cc1)C(=O)C1CCCCC1 [Ex-7],at most 6%,,,,,at most 15%
CC(c1ccc(-c2noc(C(F)(F)F)n2)cc1)N(C)C(=O)C1CCCCC1 (racemic) [Ex-15],at most 6%,,,,,
CC(c1ccc(-c2noc(C(F)(F)F)n2)cc1)N(C)C(=O)C1CCCC1 (racemic) [Ex-21],at most 6%,,,,,
CC(c1ccc(-c2noc(C(F)(F)F)n2)cc1)N(C)C(=O)C1CCC1 (racemic) [Ex-18],at most 6%,,,,,at most 15%
CN(Cc1ccc(-c2noc(C(F)(F)F)n2)cc1)C(=O)c1ccccc1 [Ex-4],,at most 4%,at most 12%,at most 1%,,
CC(C)N(Cc1ccc(-c2noc(C(F)(F)F)n2)cc1)C(=O)C1CCCCC1 [Ex-11],at most 6%,,,,,at most 15%
CC(c1ccc(-c2noc(C(F)(F)F)n2)cc1)N(C)C(=S)C1(C)CC1 (racemic) [Ex-26],at most 6%,,,,,
CC(c1ccc(-c2noc(C(F)(F)F)n2)cc1)N(C)C(=O)C1(C)CC1 (racemic) [Ex-20],,at most 4%,,at most 1%,at most 13%,
CN(Cc1ccc(-c2noc(C(F)(F)F)n2)cc1)C(=S)C1CC1 [Ex-31],,,,at most 1%,at most 13%,
CC(c1ccc(-c2noc(C(F)(F)F)n2)cc1)N(C)C(=O)c1ccc(F)cc1 (racemic) [Ex-23],at most 6%,,,,,
CC(c1ccc(-c2noc(C(F)(F)F)n2)cc1)N(C)C(=O)c1ccccc1 (racemic) [Ex-14],at most 6%,,,,,
CN(Cc1ccc(-c2noc(C(F)(F)F)n2)cc1)C(=S)c1ccccc1 [Ex-28],,at most 4%,at most 12%,at most 1%,,
